The list shows a part of the results.

The chains behind the UniProt entries cited, without tags or fusion partners. Where a name states a change or a piece, a line headed by the entry shows the natural chain unless it says otherwise.
UniProt P60660, whole entry, looked up: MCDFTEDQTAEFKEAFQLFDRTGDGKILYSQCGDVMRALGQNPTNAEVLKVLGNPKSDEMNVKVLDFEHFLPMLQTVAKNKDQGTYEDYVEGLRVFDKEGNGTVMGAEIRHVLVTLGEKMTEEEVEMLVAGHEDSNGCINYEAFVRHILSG
UniProt P11055, whole entry, looked up: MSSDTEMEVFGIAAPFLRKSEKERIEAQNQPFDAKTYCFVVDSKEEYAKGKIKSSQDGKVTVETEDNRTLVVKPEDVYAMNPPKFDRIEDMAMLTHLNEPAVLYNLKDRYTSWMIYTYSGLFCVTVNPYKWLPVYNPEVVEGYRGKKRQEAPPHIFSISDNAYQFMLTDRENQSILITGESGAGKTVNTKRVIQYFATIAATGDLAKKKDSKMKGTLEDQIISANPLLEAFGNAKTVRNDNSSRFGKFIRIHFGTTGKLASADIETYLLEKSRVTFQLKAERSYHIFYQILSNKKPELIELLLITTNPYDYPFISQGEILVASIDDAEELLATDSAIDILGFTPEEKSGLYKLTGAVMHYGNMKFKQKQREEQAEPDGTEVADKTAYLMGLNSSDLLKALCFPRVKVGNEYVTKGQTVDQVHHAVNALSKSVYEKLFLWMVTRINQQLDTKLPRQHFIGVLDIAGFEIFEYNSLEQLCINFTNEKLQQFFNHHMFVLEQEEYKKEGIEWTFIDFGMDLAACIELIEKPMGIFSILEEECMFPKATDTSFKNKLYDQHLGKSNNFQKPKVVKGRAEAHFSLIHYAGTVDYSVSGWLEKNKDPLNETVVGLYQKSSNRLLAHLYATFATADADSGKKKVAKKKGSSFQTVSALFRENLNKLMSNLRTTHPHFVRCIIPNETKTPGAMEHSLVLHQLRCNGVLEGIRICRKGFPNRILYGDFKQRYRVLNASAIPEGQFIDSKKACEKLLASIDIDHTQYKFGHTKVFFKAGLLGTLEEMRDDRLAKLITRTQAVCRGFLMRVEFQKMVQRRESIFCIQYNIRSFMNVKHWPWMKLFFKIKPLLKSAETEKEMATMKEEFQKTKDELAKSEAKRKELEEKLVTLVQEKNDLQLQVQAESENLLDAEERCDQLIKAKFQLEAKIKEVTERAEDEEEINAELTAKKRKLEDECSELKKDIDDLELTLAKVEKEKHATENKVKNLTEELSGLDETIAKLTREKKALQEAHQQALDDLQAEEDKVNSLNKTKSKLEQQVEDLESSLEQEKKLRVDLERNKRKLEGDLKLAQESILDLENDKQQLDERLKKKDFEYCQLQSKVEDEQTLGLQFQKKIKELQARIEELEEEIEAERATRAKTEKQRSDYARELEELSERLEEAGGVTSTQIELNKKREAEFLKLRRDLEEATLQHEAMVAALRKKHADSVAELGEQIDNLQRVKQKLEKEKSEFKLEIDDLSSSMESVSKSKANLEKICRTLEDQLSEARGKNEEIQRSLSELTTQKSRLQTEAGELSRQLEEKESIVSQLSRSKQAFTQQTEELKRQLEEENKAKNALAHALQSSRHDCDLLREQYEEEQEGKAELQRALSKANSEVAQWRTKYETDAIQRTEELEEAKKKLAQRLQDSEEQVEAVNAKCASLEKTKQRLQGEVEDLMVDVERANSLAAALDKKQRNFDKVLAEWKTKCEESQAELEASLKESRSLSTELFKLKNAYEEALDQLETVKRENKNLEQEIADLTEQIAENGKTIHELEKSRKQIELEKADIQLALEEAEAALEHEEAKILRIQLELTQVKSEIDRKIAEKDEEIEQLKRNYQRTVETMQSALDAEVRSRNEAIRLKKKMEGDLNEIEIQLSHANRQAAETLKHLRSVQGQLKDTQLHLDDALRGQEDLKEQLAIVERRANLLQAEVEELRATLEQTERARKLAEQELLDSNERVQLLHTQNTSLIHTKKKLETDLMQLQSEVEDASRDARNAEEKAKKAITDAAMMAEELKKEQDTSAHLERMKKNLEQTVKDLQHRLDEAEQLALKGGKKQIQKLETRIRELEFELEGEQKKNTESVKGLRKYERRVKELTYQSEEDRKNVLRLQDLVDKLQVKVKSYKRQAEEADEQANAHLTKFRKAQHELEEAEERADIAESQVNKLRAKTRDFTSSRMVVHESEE
UniProt Q7Z406, whole entry, looked up: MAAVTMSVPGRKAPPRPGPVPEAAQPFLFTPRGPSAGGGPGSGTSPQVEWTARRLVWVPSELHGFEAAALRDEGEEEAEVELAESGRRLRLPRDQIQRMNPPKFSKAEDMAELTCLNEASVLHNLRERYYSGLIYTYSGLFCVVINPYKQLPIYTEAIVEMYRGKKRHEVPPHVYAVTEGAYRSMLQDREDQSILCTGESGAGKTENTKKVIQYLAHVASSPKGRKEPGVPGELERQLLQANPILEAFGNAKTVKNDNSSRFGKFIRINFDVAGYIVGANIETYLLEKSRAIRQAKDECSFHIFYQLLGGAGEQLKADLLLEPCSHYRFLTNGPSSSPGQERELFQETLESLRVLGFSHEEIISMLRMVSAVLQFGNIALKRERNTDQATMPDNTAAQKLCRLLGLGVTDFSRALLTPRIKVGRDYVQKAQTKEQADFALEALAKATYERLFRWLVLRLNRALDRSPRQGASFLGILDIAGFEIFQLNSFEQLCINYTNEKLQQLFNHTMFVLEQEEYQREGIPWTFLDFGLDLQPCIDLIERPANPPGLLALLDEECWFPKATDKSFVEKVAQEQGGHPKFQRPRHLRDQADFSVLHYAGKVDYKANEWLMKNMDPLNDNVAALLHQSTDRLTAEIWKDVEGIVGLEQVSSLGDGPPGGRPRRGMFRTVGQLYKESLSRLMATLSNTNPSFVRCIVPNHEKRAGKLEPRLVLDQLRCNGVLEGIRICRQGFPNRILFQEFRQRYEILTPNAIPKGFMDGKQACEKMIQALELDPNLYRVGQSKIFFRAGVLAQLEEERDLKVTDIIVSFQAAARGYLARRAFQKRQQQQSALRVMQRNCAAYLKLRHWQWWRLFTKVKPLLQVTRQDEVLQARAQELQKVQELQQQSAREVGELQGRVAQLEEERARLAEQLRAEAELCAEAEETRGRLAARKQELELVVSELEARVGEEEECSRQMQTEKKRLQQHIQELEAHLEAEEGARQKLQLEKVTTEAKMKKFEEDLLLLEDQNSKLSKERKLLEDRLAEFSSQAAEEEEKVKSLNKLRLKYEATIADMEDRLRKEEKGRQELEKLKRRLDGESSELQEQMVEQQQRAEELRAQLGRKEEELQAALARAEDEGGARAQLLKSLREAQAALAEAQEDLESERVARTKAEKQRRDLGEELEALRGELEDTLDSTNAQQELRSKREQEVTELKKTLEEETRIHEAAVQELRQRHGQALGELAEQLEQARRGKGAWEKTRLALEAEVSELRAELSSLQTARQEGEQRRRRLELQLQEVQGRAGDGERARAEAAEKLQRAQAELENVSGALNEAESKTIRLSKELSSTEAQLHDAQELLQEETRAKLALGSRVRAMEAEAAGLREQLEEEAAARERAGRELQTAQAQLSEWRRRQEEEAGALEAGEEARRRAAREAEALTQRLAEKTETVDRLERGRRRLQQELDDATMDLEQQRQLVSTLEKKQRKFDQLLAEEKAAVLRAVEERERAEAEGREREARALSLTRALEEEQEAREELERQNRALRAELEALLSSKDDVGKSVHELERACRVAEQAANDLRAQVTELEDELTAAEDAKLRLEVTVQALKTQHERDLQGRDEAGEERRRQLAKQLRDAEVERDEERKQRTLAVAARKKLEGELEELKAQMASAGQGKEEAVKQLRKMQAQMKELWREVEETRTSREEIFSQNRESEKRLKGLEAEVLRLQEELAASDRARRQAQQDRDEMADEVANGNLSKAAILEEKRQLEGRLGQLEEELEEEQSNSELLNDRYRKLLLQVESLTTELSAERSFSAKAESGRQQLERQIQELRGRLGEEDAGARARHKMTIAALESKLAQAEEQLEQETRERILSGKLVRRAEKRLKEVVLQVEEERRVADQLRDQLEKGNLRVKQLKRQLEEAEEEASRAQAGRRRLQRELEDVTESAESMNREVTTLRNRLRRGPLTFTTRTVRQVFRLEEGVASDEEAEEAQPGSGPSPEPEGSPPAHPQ
UniProt Q13505: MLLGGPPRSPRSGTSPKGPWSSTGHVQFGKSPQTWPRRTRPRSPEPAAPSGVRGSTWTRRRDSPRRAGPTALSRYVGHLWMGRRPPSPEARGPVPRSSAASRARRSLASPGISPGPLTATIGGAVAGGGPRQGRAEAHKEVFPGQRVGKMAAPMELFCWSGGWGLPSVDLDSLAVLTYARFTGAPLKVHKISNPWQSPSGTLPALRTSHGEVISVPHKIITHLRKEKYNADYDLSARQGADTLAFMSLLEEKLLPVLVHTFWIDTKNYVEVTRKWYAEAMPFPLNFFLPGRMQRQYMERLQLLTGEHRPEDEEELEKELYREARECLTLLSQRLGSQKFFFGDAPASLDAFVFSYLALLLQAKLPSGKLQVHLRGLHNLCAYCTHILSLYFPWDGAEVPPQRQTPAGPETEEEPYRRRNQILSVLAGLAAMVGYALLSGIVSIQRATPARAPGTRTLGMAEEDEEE
UniProt P14649: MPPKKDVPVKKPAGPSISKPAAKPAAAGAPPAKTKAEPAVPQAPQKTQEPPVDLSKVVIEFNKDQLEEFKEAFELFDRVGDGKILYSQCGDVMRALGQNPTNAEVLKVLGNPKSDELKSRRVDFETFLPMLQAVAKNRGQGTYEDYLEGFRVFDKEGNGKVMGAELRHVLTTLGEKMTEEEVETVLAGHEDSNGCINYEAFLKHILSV
UniProt Q6P444: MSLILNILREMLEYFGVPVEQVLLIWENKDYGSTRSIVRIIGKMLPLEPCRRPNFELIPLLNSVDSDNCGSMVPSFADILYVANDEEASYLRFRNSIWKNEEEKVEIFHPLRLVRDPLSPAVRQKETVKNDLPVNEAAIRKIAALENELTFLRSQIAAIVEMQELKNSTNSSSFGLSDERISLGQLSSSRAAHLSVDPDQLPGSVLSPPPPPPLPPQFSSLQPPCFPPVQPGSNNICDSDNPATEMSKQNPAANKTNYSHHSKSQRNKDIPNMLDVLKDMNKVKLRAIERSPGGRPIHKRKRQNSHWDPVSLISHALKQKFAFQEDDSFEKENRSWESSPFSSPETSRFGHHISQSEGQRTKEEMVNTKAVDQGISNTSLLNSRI
UniProt Q13330: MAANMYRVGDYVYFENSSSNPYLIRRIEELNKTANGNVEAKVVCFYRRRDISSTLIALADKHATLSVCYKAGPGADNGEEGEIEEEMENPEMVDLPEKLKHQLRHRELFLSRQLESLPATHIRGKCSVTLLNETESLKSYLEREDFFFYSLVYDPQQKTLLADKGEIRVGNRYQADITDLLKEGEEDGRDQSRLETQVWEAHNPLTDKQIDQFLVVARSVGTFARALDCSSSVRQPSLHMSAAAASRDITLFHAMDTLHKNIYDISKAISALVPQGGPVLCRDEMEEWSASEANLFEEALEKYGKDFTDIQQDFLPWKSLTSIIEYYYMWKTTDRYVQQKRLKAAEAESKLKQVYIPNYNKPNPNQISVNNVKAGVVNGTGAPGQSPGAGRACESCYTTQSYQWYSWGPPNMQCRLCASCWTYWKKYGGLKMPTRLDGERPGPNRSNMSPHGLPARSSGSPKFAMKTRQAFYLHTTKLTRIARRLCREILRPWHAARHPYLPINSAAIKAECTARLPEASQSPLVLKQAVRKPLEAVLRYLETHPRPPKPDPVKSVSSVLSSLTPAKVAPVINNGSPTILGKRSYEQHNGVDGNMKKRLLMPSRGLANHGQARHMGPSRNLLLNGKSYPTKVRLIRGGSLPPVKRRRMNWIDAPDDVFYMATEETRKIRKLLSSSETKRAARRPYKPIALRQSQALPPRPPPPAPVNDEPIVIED
UniProt Q9Y2Z2: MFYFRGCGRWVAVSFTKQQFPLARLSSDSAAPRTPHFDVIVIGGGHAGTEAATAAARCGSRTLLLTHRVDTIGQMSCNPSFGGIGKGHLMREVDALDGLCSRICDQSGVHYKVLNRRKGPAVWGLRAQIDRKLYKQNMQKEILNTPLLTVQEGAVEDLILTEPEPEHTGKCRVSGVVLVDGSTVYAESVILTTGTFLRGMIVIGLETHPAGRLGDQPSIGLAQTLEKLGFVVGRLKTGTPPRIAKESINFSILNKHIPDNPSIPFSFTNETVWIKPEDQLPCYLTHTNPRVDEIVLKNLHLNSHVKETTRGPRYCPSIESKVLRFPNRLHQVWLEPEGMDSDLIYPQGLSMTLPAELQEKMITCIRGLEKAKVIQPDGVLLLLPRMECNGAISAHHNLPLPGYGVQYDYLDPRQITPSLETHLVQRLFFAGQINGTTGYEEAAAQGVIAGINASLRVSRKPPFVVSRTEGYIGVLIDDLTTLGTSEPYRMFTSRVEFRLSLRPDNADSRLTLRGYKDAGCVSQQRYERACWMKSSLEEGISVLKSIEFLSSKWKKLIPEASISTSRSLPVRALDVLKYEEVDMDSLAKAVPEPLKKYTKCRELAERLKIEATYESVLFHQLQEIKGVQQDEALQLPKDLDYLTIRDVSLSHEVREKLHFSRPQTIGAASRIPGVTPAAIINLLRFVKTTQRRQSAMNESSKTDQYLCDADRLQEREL

These results are taken from the supplement of paper PMC10849652.

Compound in the assay: c1cn2cc(-c3ccc4cn[nH]c4c3)nc(Nc3ccc(N4CCOCC4)cc3)c2n1 [entospletinib]
The assay can be described thus: log2 fold change, soluble protein after heating vs DMSO (PISA); higher = thermal stabilisation; K562 cells, 10 uM, 30 min; active = over 0.2 and 3.5 SD of the protein, either way, in both replicates (recomputed). The essentials: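 Soluble protein was quantified by TMTpro 16plex LC-MS/MS after channel sums were equalised. It was obtained as the supernatant after 21,000xg for 90 min from pooled aliquots of K562 cells (2×10^6 cells/mL, 10 μM compound, 30 min) heated for 3 min across 48°C-58°C and extracted in PBS with 0.5% NP-40 at 4°C. Thermal stability values are relative to control samples and come from duplicates. They are given as log2 fold changes.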
In the case of MYL6 isoform 2 (UniProt P60660), the log2 fold change is inactive: 0.022.
Take MTFR1 (UniProt Q15390): the log2 fold change is inactive: -0.046.
For MRPL9 (UniProt Q9BYD2) the value was inactive: 0.115; for MRPS28 (UniProt Q9Y2Q9), inactive: 0.041; for MRRF (UniProt Q96E11), inactive: -0.097.
To MRPS7 (UniProt Q9Y2R9) belongs inactive: 0.003; to MYH3 (UniProt P11055), inactive: 0.286; to MTSS2 (UniProt Q765P7), inactive: 0.026.
For MTRR isoform 1 (UniProt Q9UBK8), the log2 fold change was inactive: -0.026.
With MYH14 isoform 2 (UniProt Q7Z406), the log2 fold change is inactive: -0.044.
For MTMR6 (UniProt Q9Y217) the value was inactive: 0.113; for MSN (UniProt P26038), inactive: 0.009; for MTREX (UniProt P42285), inactive: -0.031.
For MTX1 (UniProt Q13505) the value was inactive: 0.049.
For MYCBP2 (UniProt O75592) the value was inactive: 0.116; for MYO18B isoform 3 (UniProt Q8IUG5), inactive: 0.3.
On to MTMR12 (UniProt Q9C0I1), for which the log2 fold change was inactive: -0.001.
For MRPS34 (UniProt P82930) the value was inactive: 0.107; for MTM1 (UniProt Q13496), inactive: 0.042; for MYH15 (UniProt Q9Y2K3), inactive: -0.033.
For MYL6B (UniProt P14649) the value was inactive: -0.004; for MTFR2 (UniProt Q6P444), inactive: 0.004; for MYL6 (UniProt G3V1V0), inactive: 0.122.
For MRPS14 (UniProt O60783) the value was inactive: 0.176.
Take MTA1 (UniProt Q13330): the log2 fold change is inactive: -0.048.
On to MRPS18A isoform 2 (UniProt Q9NVS2), for which the log2 fold change was inactive: 0.094.
For MYH2 (UniProt Q9UKX2) the value was inactive: 0.802; for MTO1 isoform 6 (UniProt Q9Y2Z2), inactive: 0.128; for MVK (UniProt Q03426), inactive: -0.015.
Turning to MRPS18C (UniProt Q9Y3D5), the log2 fold change was inactive: 0.065.
